No constants are given. Whether binding was seen depends on the method and setting. Binding seen in cells or lysates may run through a third protein. A yes stands for co-enrichment or nearness to the bait. Other partners may have been found.
Biological target: YFP-TAC102 (Trypanosoma brucei) (UniProt Q57XN5)
Assay: affinity purification with mass spectrometry

Substance	binding
TAC40 (from UniProt Q581S0)	binds
TAC60 (from UniProt Q57WR0)	binds
TAC65 (from UniProt Q57W28)	binds
Tb927.11.16120 (from UniProt Q381H4)	binds
